Laboratory results: publication doi:10.1101/2024.05.08.593233
These are yes or no findings as the source states them, for the method shown. Binding seen in cells or lysates may run through a third protein. Some results given as binding are weak or reduced against the parent protein; the word gives no strength. Sequences can lack the tags named with a protein. Blank lines part the entries; values can stand above or below the binder they belong to.

What was measured:
[1] = target: T1, 3×FLAG-Rubicon (1–504, 558–972) (human) (UniProt Q92622); assay: co-IP
T1 sequence: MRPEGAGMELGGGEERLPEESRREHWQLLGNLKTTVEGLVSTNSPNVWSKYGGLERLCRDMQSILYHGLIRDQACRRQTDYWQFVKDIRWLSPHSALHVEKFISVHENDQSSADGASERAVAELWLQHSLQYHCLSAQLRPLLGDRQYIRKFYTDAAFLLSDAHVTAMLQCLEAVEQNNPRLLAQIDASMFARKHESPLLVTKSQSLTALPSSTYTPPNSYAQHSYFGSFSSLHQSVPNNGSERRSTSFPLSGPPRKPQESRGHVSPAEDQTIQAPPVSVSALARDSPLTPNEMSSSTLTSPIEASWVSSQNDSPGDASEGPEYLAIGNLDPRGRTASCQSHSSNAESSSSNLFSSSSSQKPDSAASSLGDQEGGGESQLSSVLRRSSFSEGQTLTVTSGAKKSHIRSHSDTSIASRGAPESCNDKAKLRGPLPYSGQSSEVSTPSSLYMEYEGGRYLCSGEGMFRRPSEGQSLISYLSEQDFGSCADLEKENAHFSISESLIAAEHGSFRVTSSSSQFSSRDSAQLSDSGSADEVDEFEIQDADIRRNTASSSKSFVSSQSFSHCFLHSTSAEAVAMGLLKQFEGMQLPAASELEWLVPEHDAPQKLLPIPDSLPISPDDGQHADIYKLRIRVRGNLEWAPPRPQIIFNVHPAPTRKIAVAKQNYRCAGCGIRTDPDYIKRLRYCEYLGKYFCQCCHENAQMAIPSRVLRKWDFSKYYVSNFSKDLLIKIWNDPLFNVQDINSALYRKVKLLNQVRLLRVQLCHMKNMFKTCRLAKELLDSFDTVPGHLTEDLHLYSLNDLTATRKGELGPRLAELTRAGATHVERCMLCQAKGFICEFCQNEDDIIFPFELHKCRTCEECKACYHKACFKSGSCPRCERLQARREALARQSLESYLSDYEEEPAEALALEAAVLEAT

[2] = target: T2, 3×FLAG-Rubicon (1–972) (human) (UniProt Q92622); assay: co-IP
T2 sequence: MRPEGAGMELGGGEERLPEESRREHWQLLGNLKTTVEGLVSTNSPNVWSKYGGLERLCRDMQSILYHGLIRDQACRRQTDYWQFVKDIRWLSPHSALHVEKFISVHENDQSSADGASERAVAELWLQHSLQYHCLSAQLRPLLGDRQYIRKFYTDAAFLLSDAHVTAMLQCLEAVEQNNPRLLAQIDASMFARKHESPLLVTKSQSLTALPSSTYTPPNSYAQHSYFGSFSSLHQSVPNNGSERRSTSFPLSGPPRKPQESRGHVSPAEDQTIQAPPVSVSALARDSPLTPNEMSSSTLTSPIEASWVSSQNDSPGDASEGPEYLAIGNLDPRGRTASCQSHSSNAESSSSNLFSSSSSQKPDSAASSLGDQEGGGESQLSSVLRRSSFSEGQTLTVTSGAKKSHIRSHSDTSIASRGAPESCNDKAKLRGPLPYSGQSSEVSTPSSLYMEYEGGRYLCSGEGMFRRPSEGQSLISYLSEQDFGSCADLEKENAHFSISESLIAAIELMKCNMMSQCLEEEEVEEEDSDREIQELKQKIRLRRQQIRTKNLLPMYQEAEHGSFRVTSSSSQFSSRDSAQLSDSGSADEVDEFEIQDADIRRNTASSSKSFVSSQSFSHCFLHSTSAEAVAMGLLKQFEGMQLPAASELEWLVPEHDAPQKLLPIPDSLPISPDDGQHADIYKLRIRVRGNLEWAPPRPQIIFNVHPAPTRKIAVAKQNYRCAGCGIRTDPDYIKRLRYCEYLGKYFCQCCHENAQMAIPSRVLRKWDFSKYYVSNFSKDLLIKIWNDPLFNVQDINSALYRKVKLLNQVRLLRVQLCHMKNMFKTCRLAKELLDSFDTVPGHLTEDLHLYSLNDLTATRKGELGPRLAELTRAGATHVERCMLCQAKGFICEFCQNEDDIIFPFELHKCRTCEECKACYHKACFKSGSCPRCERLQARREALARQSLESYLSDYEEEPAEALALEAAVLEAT

binding [1]: binds
binding [2]: binds
B1: endogenous WIPI2 (HEK293T) (protein, UniProt Q9Y4P8 1-454)
chain: MNLASQSGEAGAGQLLFANFNQDNTEVKGASRAAGLGRRAVVWSLAVGSKSGYKFFSLSSVDKLEQIYECTDTEDVCIVERLFSSSLVAIVSLKAPRKLKVCHFKKGTEICNYSYSNTILAVKLNRQRLIVCLEESLYIHNIRDMKVLHTIRETPPNPAGLCALSINNDNCYLAYPGSATIGEVQVFDTINLRAANMIPAHDSPLAALAFDASGTKLATASEKGTVIRVFSIPEGQKLFEFRRGVKRCVSICSLAFSMDGMFLSASSNTETVHIFKLETVKEKPPEEPTTWTGYFGKVLMASTSYLPSQVTEMFNQGRAFATVRLPFCGHKNICSLATIQKIPRLLVGAADGYLYMYNLDPQEGGECALMKQHRLDGSLETTNEILDSASHDCPLVTQTYGAAAGKGTYVPSSPTRLAYTDDLGAVGGACLEDEASALRLDEDSEHPPMILRTD

binding [1]: binds
binding [2]: binds
B2: HA-WIPI2d (protein, UniProt Q9Y4P8-2 1-425)
chain: MNLASQSGEAGAGQLLFANFNQDNTSLAVGSKSGYKFFSLSSVDKLEQIYECTDTEDVCIVERLFSSSLVAIVSLKAPRKLKVCHFKKGTEICNYSYSNTILAVKLNRQRLIVCLEESLYIHNIRDMKVLHTIRETPPNPAGLCALSINNDNCYLAYPGSATIGEVQVFDTINLRAANMIPAHDSPLAALAFDASGTKLATASEKGTVIRVFSIPEGQKLFEFRRGVKRCVSICSLAFSMDGMFLSASSNTETVHIFKLETVKEKPPEEPTTWTGYFGKVLMASTSYLPSQVTEMFNQGRAFATVRLPFCGHKNICSLATIQKIPRLLVGAADGYLYMYNLDPQEGGECALMKQHRLDGSLETTNEILDSASHDCPLVTQTYGAAAGKAYTDDLGAVGGACLEDEASALRLDEDSEHPPMILRTD
